Measured values from article PMC9457610, “Synthesis of thia-Michael-Type Adducts between Naphthoquinones and N-Acetyl-L-Cysteine and Their Biological Activity” (Molecules, 2022).

Experiment: Reaction with GSH, DI-MS analysis
Conditions: 3 mM compound + 3 mM GSH in PBS, pH 7.4 or 4.0, overnight at 37 °C
Description: To this end, 8, 9, and 11 were incubated with GSH in 0.1 mL phosphate-buffered saline (PBS) overnight; then, these solutions underwent direct-infusion mass spectrometric analyses (DI-MS).
The standard reaction mixture consisted of 3 mM 8, 9, and 11 in 0.1 mL PBS, pH 7.4 or 4.0; the reaction was started with the addition of 3 mM GSH, overnight at 37 ° C. Reaction mixtures, diluted at 1:100 in methanol, were analyzed in direct-infusion mode and negative polarity with an AB Sciex QTrap 4500 (Concord, ON, Canada) mass spectrometer. The experimental conditions were as follows: ion spray voltage—4500 kV; temperature—100 °C; curtain gas (nitrogen) pressure—30 PSI; declustering potential—60 V; entrance potential—10 V. Mass spectra were acquired with Analyst 1.6.3 software (AB Sciex, Concord, ON, Canada).

Structure (SMILES) | reactivity with glutathione (adduct formation, DI-MS)
CC(=O)N[C@@H](CSC1=CC(=O)c2ccccc2C1=O)C(=O)O [Compound 8, N-acetyl-S-(1,4-dioxo-1,4-dihydronaphthalen-2-yl)-L-cysteine] | reacted with GSH
CC(=O)N[C@@H](CSC1=CC(=O)c2c(O)cccc2C1=O)C(=O)O [Compound 11, N-acetyl-S-(5-hydroxy-1,4-dioxo-1,4-dihydronaphthalen-2-yl)-L-cysteine] | reacted with GSH
CC(=O)N[C@@H](CSC1=C(C)C(=O)c2ccccc2C1=O)C(=O)O [Compound 9, N-acetyl-S-(3-methyl-1,4-dioxo-1,4-dihydronaphthalen-2-yl)-L-cysteine] | did not seem to react with GSH
